Source: patent US20240148745A1, “COMPOUNDS FOR USE IN PROGRESSIVE MULTIPLE SCLEROSIS” (FONDAZIONE CENTRO SAN RAFFAELE, priority 2021, published 2024)
At least one structure is not confirmed: it was looked up by name or label, or the drawing left a doubt. Some entries repeat one wording, which the source may state once for all of them.

Tested on: rat oligodendrocyte progenitor CG4 line
Experiment: Differentiation assay on rat oligodendrocyte progenitor CG4 line (HCS, mCherry+)
Assay type: cell-based
Details: secondary screen of 49 selected compounds, 1 μM, 5 days
Description: Primary validation on CG4 line toxicity and differentiation. An innovative OPC line was developed for fast and reliable high content screening (HCS) of small compounds inducing oligodendrocyte differentiation. The line was genetically engineered by lentiviral transduction of rat CG4 cells (PubMed=1613821; DOI=10.1002/jnr.490310125; Louis J. C., Magal E., Muir D., Manthorpe M., Varon S.; CG-4, a new bipotential glial cell line from rat brain, is capable of differentiating in vitro into either mature oligodendrocytes or type-2 astrocytes. J. Neurosci. Res. 31:193-204(1992) to express mCherry fluorescent reporter (Evercooren, Anne & Avellana-Adalid, V. & Vitry, Sandrine & Nait-Oumesmar, Brahim & Lachapelle, Francois. (1997). Expansion of Oligodendrocyte Progenitors for Myelin Repair. 10.1007/978-1-4615-5949-8_21) in mature oligodendrocytes only, and EGFP at all stage of the oligodendroglial lineage: both the generation of mature oligodendrocytes (wmNl-mCherry) and the morphological changes associated with differentiation (CMV-EGFP) can be therefore monitored in a single assay. mCherry expression occurred only in O4+/GalC+ differentiated oligodendrocytes and GFP was ubiquitously expressed at all developmental stages. The line so obtained was validated using compounds with well-established effects on oligodendrocyte differentiation (cAMP and T3). Cell-based assay was standardized on the HCS platform (ArrayScanXTI, Brain and Spine Institute (Paris), validating the pro-differentiation effects of clemastine^27 and 9cis-retinoic acid.^28 For HCS validation of 274 compounds identified through in silico screen, double-fluo CG4 line cells were plated in 96 well-plates, 6500 cells/cm^2 and left for 24 h in proliferation. The other day, compounds were added (1 μM) for next 5 days of differentiation, with ⅔ medium changed after 3 days. 9-cis Retinoic Acid (9cis-RA; […]) served as a positive control, negative controls were basal (N1) medium and vehicle (basal+0.1% DMSO). Each compound was tested in triplicate and were imaged with ArrayScanXTI system (35 fields/well) after 5 days of differentiation.
FIG. 4 provides a schematic representation of High Content Screening (HCS) validation of the 274 compounds identified through in silico screening using CG4 line. […] In addition, the whole short list of 160 non-toxic compounds were screened using the CG4 high content phenotypic assay to further confirm the data from primary screening and to potentially select additional compounds with pro-myelinating activities. From this screening of the short list, 49 hit compounds were identified that increase differentiation either of CG4 cells or primary OPCs (FIG. 6).

Compound: CN1CCN(CCOc2cc(OC3CCOCC3)c3c(Nc4c(Cl)ccc5c4OCO5)ncnc3c2)CC1 [Saracatinib]
- CG4 differentiation compared with 9cis-RA positive control: promoting differentiation significantly higher than 9cis-RA positive control
